The subject of one series is primary AML samples. Nature of the series: HLA class I ligandome analysis (W6/32 immunoaffinity purification, LC-MS/MS) of primary AML samples. Details: species or system human. The settings on record: HLA class I ligandome, AML patients (n=15); count for the HLA ligand (LiTAP) or, on protein lines, for the source protein (LiTAA).
The subject of series [1] is cancer tissues in comparison to non-cancerous tissues and organs. Nature of the series: Presentation profile / over-presentation by label-free LC-MS (XPRESIDENT), tumor versus normal tissues, other proliferative diseases. Further details: species or system human. The settings on record: other proliferative diseases / organs (other than AML) that over- or exclusively present the peptide; Table 5.

As to “52 (VHSPAGMAL; listed as Homo sapiens) [compound 52]”, the “Number of positive AMLs” value with primary AML samples turned out to be 1. In series [1], the “Proliferative disease and location thereof” value was “parathyroid gland, adenoma”.
Take “53 (VLYEGIKVGK; listed as Homo sapiens) [compound 53]”: the “Number of positive AMLs” value with primary AML samples came to 4. The “Proliferative disease and location thereof” value in series [1] is “parathyroid gland, adenoma”.
Consider “59 (HRIYVPLML; listed as Homo sapiens) [compound 59]”, for which the “Number of positive AMLs” value with primary AML samples stood at 1. The “Proliferative disease and location thereof” value in series [1] was “stomach, diffuse subtype adenocarcinoma, pancreas, adenocarcinoma”.
Take “60 (KEYIPPLIW; listed as Homo sapiens) [compound 60]”: the “Number of positive AMLs” value in the series with primary AML samples is 1. Besides, in series [1], the “Proliferative disease and location thereof” value was “stomach, adenocarcinoma, pancreas, adenocarcinoma”.
Turning to “61 (MDKLVVEY; listed as Homo sapiens) [compound 61]”, the “Number of positive AMLs” value in the series with primary AML samples turned out to be 2. For the same substance, the “Proliferative disease and location thereof” value in series [1] was “stomach, adenocarcinoma, pancreas, adenocarcinoma”.
Turning to “66 (ETAVAILRF; listed as Homo sapiens) [compound 66]”, the “Number of positive AMLs” value in the series on primary AML samples is 4. In addition, the “Proliferative disease and location thereof” value in series [1] is listed as “metastatic infiltrating lobular carcinoma of breast”.
As for “68 (IGVEHVVVY; listed as Homo sapiens) [compound 68]”, in the series on primary AML samples, the “Number of positive AMLs” value stood at 4. Further, in series [1], the “Proliferative disease and location thereof” value is on record as “brain, cancer, kidney, oncocytoma”.
For the substance “69 (RQIGVEHVV; listed as Homo sapiens) [compound 69]”, the “Number of positive AMLs” value with primary AML samples was determined as 1. Moreover, the “Proliferative disease and location thereof” value in series [1] was “brain, cancer, kidney, oncocytoma”.
With “70 (DVFERPSAKK; listed as Homo sapiens) [compound 70]”, the “Number of positive AMLs” value in the series on primary AML samples worked out at 1. In series [1], the “Proliferative disease and location thereof” value was “kidney, clear cell renal cell carcinoma, synovial; sarcoma”.
For “71 (EEFQFIKKA; listed as Homo sapiens) [compound 71]”, the “Number of positive AMLs” value with primary AML samples came out at 2. Besides, the “Proliferative disease and location thereof” value in series [1] is listed as “kidney, clear cell renal cell carcinoma, synovial; sarcoma”.
As to “72 (THLVDQDTTSF; listed as Homo sapiens) [compound 72]”, the “Number of positive AMLs” value in the series on primary AML samples was found to be 1. Further, the “Proliferative disease and location thereof” value in series [1] is given as “kidney, clear cell renal cell carcinoma, synovial; sarcoma”.
For the substance “73 (ESADLIQHY; listed as Homo sapiens) [compound 73]”, in the series on primary AML samples, the “Number of positive AMLs” value is 4. In series [1], the “Proliferative disease and location thereof” value is “pancreas, adenocarcinoma, kidney, renal cell carcinoma”.
Consider “74 (EIIKEISIM; listed as Homo sapiens) [compound 74]”, for which the “Number of positive AMLs” value in the series on primary AML samples was 3. Also, the “Proliferative disease and location thereof” value in series [1] is “pancreas, adenocarcinoma, lymph node, Hodgkin's disease”.
“75 (SVSDIIRLR; listed as Homo sapiens) [compound 75]”: the “Number of positive AMLs” value in the series with primary AML samples came to 1. Moreover, the “Proliferative disease and location thereof” value in series [1] is recorded as “pancreas, adenocarcinoma, lymph node, Hodgkin's disease”.
Turning to “76 (AVSLIREEW; listed as Homo sapiens) [compound 76]”, in the series with primary AML samples, the “Number of positive AMLs” value is 2. In series [1], the “Proliferative disease and location thereof” value is on record as “stomach, adenocarcinoma, white blood cells, chronic lymphocytic leukemia”.
For the substance “77 (GEKSESISV; listed as Homo sapiens) [compound 77]”, in the series on primary AML samples, the “Number of positive AMLs” value is reported as 1. In series [1], the “Proliferative disease and location thereof” value is “stomach, adenocarcinoma, white blood cells, chronic lymphocytic leukemia”.
Take “78 (FLTILPEEL; listed as Homo sapiens) [compound 78]”: the “Number of positive AMLs” value in the series with primary AML samples is recorded as 1. Moreover, in series [1], the “Proliferative disease and location thereof” value was “pancreas, adenocarcinoma, lung, adenocarcinoma”.
With “79 (ILWETVPSM; listed as Homo sapiens) [compound 79]”, the “Number of positive AMLs” value with primary AML samples was found to be 1. The “Proliferative disease and location thereof” value in series [1] is “colon or rectum, metastatic renal cell carcinoma”.
